Laboratory results published in publication PMC12882719.
Results are given in words; binding and its absence hold for the method and conditions named. Binding seen in cells or lysates may run through a third protein. Some entries that bind do so weakly or less than the wild type.

Chains of the proteins cited; added tags and fusions are not shown. Lines headed by an entry give the natural chain unless they say otherwise; changes in a name come on top. A line that says so, or that is headed by a name, gives the form on record, which may keep a tag or linker. Residues count along the entry.
GluN2B wild-type subunit of the NMDA receptor (Q13224, residues 27-1484): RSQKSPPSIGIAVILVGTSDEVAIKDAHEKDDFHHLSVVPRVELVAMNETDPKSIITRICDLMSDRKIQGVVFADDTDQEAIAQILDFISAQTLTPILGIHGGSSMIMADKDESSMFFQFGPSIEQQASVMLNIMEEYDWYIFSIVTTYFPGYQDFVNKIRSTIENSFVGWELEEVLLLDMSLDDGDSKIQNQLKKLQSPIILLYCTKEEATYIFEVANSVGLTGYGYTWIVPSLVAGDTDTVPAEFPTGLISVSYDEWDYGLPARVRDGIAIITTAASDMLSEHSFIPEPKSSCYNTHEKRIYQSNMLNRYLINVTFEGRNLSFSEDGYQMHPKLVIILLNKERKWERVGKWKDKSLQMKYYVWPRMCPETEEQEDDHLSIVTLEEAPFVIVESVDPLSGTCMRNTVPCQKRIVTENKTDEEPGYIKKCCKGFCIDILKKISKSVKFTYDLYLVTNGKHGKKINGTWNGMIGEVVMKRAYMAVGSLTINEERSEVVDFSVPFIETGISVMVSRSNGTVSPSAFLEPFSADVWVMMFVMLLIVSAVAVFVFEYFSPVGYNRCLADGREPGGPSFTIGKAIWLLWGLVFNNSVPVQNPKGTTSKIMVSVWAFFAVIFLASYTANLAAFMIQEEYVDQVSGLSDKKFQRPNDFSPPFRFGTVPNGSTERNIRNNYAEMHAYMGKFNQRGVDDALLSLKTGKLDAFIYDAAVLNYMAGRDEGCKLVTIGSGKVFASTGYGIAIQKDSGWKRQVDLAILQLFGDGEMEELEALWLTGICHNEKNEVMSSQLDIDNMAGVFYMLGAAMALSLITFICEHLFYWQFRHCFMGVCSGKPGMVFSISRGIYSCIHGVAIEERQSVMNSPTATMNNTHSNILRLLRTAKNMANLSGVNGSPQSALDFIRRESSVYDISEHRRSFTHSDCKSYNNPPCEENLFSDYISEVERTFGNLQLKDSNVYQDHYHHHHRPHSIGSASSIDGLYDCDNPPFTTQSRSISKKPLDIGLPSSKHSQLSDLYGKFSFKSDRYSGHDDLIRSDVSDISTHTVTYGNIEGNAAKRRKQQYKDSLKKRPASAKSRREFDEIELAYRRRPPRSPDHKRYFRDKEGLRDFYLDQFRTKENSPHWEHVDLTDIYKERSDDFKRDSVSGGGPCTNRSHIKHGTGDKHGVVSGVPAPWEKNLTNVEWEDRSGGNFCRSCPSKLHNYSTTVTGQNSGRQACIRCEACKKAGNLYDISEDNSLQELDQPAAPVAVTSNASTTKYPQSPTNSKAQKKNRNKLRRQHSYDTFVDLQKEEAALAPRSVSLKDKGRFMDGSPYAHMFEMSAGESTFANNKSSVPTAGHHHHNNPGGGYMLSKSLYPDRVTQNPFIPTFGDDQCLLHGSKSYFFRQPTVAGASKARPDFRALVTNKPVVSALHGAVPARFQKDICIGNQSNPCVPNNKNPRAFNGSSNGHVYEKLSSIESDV
GluN2B R519Q disease-associated variant subunit of the NMDA receptor (Q13224, form named): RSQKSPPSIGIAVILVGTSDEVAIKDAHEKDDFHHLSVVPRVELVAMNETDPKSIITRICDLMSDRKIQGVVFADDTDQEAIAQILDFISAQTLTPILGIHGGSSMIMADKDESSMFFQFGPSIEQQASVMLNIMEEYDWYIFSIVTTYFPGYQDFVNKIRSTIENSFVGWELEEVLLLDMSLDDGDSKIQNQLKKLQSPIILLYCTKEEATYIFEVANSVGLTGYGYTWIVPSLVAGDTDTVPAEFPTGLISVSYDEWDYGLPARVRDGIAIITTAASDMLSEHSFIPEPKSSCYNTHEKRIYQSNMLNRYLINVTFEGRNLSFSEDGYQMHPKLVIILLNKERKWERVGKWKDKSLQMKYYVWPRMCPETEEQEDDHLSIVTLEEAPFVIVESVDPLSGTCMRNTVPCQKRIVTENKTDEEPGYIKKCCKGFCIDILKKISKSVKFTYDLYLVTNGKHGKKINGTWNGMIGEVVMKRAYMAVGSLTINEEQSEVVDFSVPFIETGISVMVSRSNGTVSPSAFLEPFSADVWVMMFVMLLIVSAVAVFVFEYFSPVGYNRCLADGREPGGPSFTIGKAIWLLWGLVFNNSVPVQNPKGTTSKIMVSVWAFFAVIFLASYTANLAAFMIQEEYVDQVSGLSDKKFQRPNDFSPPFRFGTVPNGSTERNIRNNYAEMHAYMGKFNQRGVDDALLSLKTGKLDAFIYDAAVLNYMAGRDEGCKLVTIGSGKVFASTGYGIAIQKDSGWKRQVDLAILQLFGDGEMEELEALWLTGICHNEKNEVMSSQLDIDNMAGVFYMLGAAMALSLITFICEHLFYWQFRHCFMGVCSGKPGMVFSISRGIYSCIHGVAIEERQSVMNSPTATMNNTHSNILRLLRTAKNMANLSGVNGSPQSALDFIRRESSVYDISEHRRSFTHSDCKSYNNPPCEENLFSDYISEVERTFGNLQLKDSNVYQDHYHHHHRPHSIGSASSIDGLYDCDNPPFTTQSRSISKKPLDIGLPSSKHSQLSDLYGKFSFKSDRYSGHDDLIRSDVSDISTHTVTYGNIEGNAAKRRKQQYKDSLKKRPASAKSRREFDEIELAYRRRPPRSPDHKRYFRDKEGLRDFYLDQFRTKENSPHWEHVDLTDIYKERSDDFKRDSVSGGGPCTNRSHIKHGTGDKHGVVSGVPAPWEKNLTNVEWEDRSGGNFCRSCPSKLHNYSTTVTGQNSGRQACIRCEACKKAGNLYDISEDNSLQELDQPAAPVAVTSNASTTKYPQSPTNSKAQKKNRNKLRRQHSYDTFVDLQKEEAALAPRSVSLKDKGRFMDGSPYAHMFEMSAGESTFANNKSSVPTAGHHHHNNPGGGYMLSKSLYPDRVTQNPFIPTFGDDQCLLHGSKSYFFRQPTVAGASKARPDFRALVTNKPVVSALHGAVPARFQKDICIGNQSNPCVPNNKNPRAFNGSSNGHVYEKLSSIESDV
GluN2B R519Q_F1307A (R519Q variant with disrupted LIR motif) (Q13224, form named): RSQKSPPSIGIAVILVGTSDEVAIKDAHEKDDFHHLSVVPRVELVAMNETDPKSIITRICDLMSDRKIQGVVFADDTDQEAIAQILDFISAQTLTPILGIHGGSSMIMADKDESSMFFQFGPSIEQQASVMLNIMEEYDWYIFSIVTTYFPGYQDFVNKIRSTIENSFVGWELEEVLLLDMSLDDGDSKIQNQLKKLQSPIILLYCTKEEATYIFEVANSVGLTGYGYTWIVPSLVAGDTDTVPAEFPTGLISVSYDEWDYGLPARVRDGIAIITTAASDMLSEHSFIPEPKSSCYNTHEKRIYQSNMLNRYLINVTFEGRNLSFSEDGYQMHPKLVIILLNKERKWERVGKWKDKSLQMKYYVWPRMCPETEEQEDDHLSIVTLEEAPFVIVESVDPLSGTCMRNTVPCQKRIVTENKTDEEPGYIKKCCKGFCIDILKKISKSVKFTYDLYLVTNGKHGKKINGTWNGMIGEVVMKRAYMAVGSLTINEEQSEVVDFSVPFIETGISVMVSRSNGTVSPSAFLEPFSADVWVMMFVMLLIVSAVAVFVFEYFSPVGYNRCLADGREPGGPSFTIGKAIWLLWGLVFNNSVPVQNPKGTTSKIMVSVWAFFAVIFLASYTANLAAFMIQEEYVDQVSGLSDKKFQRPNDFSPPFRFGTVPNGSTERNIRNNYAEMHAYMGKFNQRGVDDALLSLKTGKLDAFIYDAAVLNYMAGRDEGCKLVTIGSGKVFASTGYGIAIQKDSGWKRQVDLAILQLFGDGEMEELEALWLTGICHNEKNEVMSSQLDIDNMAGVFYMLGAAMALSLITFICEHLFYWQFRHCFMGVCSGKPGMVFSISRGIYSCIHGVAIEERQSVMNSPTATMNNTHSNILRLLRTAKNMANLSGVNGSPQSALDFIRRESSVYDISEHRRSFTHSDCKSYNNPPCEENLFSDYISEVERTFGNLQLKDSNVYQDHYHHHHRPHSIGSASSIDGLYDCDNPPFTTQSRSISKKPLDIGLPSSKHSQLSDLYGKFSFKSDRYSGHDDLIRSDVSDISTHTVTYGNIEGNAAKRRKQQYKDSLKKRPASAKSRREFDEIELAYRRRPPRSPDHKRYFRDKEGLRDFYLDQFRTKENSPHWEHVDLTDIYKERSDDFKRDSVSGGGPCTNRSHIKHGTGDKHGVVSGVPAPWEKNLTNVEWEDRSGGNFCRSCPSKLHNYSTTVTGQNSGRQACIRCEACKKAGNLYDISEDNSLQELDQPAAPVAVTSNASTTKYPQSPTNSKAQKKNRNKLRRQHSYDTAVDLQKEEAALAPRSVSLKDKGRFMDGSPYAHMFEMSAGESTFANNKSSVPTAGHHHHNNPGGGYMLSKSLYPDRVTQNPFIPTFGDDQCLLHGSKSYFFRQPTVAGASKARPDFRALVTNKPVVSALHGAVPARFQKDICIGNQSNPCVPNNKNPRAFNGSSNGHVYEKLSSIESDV
UniProt Q14457: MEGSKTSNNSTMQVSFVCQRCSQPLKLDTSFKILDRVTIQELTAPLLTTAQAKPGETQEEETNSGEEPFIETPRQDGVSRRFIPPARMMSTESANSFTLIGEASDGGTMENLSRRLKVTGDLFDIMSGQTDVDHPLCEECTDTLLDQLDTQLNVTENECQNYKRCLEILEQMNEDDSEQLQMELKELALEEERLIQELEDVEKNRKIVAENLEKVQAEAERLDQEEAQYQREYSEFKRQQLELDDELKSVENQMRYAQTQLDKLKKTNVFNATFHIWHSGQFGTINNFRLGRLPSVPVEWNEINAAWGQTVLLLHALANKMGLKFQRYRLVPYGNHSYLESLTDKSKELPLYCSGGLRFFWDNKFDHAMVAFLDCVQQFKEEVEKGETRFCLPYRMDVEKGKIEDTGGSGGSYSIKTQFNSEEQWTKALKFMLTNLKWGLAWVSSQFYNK
UniProt O95197: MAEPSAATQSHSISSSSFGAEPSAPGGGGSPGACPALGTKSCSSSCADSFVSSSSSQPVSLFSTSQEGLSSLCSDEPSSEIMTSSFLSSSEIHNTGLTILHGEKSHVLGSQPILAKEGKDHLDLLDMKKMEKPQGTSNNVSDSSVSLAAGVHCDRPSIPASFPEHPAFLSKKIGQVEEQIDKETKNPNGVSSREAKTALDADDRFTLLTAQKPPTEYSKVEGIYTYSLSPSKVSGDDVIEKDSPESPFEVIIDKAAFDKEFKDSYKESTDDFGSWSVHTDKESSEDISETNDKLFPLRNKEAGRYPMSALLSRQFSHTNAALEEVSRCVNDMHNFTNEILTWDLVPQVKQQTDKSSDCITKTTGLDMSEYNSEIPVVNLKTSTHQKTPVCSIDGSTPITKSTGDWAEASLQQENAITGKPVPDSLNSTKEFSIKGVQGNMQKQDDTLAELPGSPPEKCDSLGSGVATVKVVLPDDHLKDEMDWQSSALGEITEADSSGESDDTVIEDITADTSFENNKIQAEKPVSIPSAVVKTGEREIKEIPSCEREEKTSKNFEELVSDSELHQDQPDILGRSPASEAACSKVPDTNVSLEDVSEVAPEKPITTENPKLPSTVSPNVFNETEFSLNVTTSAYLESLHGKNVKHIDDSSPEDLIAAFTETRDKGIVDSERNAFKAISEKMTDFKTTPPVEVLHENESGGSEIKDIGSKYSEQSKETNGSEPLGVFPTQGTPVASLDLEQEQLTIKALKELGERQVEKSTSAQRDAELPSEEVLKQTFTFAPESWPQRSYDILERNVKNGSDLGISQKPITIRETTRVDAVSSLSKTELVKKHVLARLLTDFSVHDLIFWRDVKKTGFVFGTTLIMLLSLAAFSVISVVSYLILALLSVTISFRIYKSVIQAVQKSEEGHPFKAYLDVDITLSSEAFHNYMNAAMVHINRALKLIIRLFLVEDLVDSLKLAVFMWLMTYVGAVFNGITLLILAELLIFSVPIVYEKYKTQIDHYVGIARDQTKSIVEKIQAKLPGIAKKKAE

Experiments:
Assay in all cases: co-IP; lysates (1000 ug) of HEK293T cells transfected with GluN1 and GluN2B (WT, R519Q or R519Q_F1307A), cells treated with 20 nM Baf-A1 for 24 h; precipitated with mouse anti-GluN2B antibody (NeuroMab #75-097) and Protein A/G plus-agarose at 4 C, washed with TBS, 1% Triton X-100; partners detected by Western blot; IgG as negative control
[1] = target: GluN2B R519Q disease-associated variant subunit of the NMDA receptor (human) (UniProt Q13224)
[2] = target: GluN2B wild-type subunit of the NMDA receptor (human) (UniProt Q13224)
[3] = target: GluN2B R519Q_F1307A (R519Q variant with disrupted LIR motif) (human) (UniProt Q13224)

| Molecule | binding [1] | binding [2] | binding [3] |
| --- | --- | --- | --- |
| Beclin 1 (from UniProt Q14457 1-450) | binds |  |  |
| ER-phagy receptor RTN3L (from UniProt O95197 1-1032) | binds | binds |  |
| ER-phagy receptor CCPG1 (protein, UniProt Q9ULG6-1 1-757) MSENSSDSDSSCGWTVISHEGSDIEMLNSVTPTDSCEPAPECSSLEQEELQALQIEQGESSQNGTVLMEETAYPALEETSSTIEAEEQKIPEDSIYIGTASDDSDIVTLEPPKLEEIGNQEVVIVEEAQSSEDFNMGSSSSSQYTFCQPETVFSSQPSDDESSSDETSNQPSPAFRRRRARKKTVSASESEDRLVAEQETEPSKELSKRQFSSGLNKCVILALVIAISMGFGHFYGTIQIQKRQQLVRKIHEDELNDMKDYLSQCQQEQESFIDYKSLKENLARCWTLTEAEKMSFETQKTNLATENQYLRVSLEKEEKALSSLQEELNKLREQIRILEDKGTSTELVKENQKLKQHLEEEKQKKHSFLSQRETLLTEAKMLKRELERERLVTTALRGELQQLSGSQLHGKSDSPNVYTEKKEIAILRERLTELERKLTFEQQRSDLWERLYVEAKDQNGKQGTDGKKKGGRGSHRAKNKSKETFLGSVKETFDAMKNSTKEFVRHHKEKIKQAKEAVKENLKKFSDSVKSTFRHFKDTTKNIFDEKGNKRFGATKEAAEKPRTVFSDYLHPQYKAPTENHHNRGPTMQNDGRKEKPVHFKEFRKNTNSKKCSPGHDCRENSHSFRKACSGVFDCAQQESMSLFNTVVNPIRMDEFRQIIQRYMLKELDTFCHWNELDQFINKFFLNGVFIHDQKLFTDFVNDVKDYLRNMKEYEVDNDGVFEKLDEYIYRHFFGHTFSPPYGPRSVYIKPCHYSSL | binds |  | binds |
